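Whole-cell growth test on Mycobacterium tuberculosis, read after 3 days in glucose-containing 7H9 medium; the read-out is not stated. Compounds at 500 µM. Direction is inferred from retests: higher values go with more growth inhibition. Size under these conditions: about 18,000 compounds, about 1,400 of them at 50% or above in at least one test.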

Each number is a percent effect as filed. The record does not define 0% and 100%; most values in the screen are far below 50% and negative numbers occur (in some assays of this library far below -100). This is an unselected part of the compounds tested.

{"structure": "CCCN(Cc1cccc(C#N)c1)C1CCS(=O)(=O)C1", "stereo": "stereo not given", "percent effect": 18.63}
{"structure": "CC(C)[C@H](N)C(=O)N1CCc2cccc(F)c2C1", "percent effect": -1.625}
{"structure": "CC(C)[C@H](N)C(=O)N(C)c1ccccc1", "percent effect": -1.017}
{"structure": "COCC(C)(CCO)NCc1cc(C)no1", "stereo": "stereo not given", "percent effect": -0.3959}
{"structure": "CC(CNC(=O)c1cc(C2CC2)[nH]n1)N1CCCC1", "stereo": "stereo not given", "percent effect": 0.6904}
{"structure": "O=C(COc1ccc2c(c1)CCC(=O)N2)NCC1CC1", "percent effect": 5.616}
{"structure": "NC1CCCN(Cc2ccccc2)C1", "stereo": "stereo not given", "percent effect": 30.31}
{"structure": "Cc1nn(-c2ccccc2)cc1CN", "percent effect": 21.17}
{"structure": "CN(CC1CCC1)C(=O)C1(c2cccnc2)CC1", "percent effect": 35.15}
{"structure": "COC(=O)[C@@H]1C[C@H](O)CN1S(=O)(=O)CC1CCCCC1", "percent effect": 1.221}
{"structure": "CC(=O)N1CCCN(C(=O)C2CCN(C)C(=O)C2)CC1", "stereo": "stereo not given", "percent effect": 5.881}
{"structure": "c1ccc(-c2nnc(CC3CCNC3)[nH]2)cc1", "stereo": "stereo not given", "percent effect": 5.943}
{"structure": "CN(C)[C@H]1CN(CCOc2ccccc2)C[C@@H]1O", "percent effect": 7.089}
{"structure": "CC(=O)c1c(C)cc(C)[nH]c1=O", "percent effect": -0.6316}
{"structure": "COC(=O)Cn1cnc2c(=O)n(C)c(=O)n(C)c21", "percent effect": 4.057}
{"structure": "COc1ccc(C(=O)CCN(C)C)cc1", "percent effect": 105.3}
{"structure": "COc1cccc(CN)n1", "percent effect": 34.75}
{"structure": "CN(C)C(=O)CN1CCCC1c1ccsc1", "stereo": "stereo not given", "percent effect": 9.319}
{"structure": "OC1CN(c2nccc(C(F)(F)F)n2)C1", "percent effect": 28.83}
{"structure": "O=S(=O)(CCO)Cc1ccc(Br)s1", "percent effect": -20.76}
{"structure": "CCOc1ccc(S(=O)(=O)NC2CC2)cc1C(N)=O", "percent effect": -20.27}
{"structure": "COCC(=O)N1CCN(Cc2csc(C)n2)CC1", "percent effect": 4.087}
{"structure": "CCN(CC)C(=O)C1CCNCC1", "percent effect": 7.622}
{"structure": "CN(CC(N)=O)C1Cc2ccccc2C1", "percent effect": -0.6429}
{"structure": "CCC(NC(=O)CCCN1CCCC1)c1ccnn1C", "stereo": "stereo not given", "percent effect": 8.058}
{"structure": "NCc1cc2c([nH]c1=O)CCC2", "percent effect": -17.95}
{"structure": "CC(CN)(CO)Cc1cccs1", "stereo": "stereo not given", "percent effect": 8.406}
{"structure": "Cc1ccc(F)c(NC(=O)C2CCCN2S(C)(=O)=O)c1", "stereo": "stereo not given", "percent effect": 17.94}
{"structure": "CN(C)CCC1CCCCN1S(=O)(=O)c1cccnc1", "stereo": "stereo not given", "percent effect": 6.127}
{"structure": "Cn1cc(CNCC(=O)NCc2ccco2)cn1", "percent effect": -3.091}
{"structure": "COc1cc(NC(=O)CCN2CCCC2)cc(OC)c1", "percent effect": 36.15}
{"structure": "O=C(NCCCNCc1ccccc1)c1ccccn1", "percent effect": 12.11}
{"structure": "O=C(CCS(=O)(=O)c1ccccc1)Nc1ccccn1", "percent effect": -0.6823}
{"structure": "CC1(C#N)CCC(=O)NC1", "stereo": "stereo not given", "percent effect": -4.467}
{"structure": "CCn1cc(OCCCS(=O)(=O)C(C)C)cn1", "percent effect": -4.822}
{"structure": "CN(C)c1cc(CNc2ncnc3nc[nH]c23)ccn1", "percent effect": 14.86}
{"structure": "CSCCCNC(=O)c1nn(C)c2c1CCCC2", "percent effect": 45.2}
{"structure": "COCCNC(=O)Cc1c(C)[nH]c2ccccc12", "percent effect": 1.791}
{"structure": "N#CC1CCN(C(=O)c2ccc(SCCO)cc2)CC1", "percent effect": 8.081}
{"structure": "NC1CCOc2ccc(F)cc21", "stereo": "stereo not given", "percent effect": 25.67}
{"structure": "CCCn1nnnc1COc1nc(C)no1", "percent effect": 8.646}

Once more, the final 4:

With COCCNC(=O)Cc1c(C)[nH]c2ccccc12 the screen gave 1.791%.
With N#CC1CCN(C(=O)c2ccc(SCCO)cc2)CC1 the screen gave 8.081%.
With NC1CCOc2ccc(F)cc21 (stereo not given) the screen gave 25.67%.
With CCCn1nnnc1COc1nc(C)no1 the screen gave 8.646%.

The values are deposited in ChEMBL (CHEMBL3988442, “University of Dundee, Small-Polar-MMV Screening Library” (2021)).